This is an account of results in publication PMC9475456, “DDX56 transcriptionally activates MIST1 to facilitate tumorigenesis of HCC through PTEN-AKT signaling”.

Protein sequences, listed by entry. Tags and fused reporters are not part of them.
UniProt Q03112: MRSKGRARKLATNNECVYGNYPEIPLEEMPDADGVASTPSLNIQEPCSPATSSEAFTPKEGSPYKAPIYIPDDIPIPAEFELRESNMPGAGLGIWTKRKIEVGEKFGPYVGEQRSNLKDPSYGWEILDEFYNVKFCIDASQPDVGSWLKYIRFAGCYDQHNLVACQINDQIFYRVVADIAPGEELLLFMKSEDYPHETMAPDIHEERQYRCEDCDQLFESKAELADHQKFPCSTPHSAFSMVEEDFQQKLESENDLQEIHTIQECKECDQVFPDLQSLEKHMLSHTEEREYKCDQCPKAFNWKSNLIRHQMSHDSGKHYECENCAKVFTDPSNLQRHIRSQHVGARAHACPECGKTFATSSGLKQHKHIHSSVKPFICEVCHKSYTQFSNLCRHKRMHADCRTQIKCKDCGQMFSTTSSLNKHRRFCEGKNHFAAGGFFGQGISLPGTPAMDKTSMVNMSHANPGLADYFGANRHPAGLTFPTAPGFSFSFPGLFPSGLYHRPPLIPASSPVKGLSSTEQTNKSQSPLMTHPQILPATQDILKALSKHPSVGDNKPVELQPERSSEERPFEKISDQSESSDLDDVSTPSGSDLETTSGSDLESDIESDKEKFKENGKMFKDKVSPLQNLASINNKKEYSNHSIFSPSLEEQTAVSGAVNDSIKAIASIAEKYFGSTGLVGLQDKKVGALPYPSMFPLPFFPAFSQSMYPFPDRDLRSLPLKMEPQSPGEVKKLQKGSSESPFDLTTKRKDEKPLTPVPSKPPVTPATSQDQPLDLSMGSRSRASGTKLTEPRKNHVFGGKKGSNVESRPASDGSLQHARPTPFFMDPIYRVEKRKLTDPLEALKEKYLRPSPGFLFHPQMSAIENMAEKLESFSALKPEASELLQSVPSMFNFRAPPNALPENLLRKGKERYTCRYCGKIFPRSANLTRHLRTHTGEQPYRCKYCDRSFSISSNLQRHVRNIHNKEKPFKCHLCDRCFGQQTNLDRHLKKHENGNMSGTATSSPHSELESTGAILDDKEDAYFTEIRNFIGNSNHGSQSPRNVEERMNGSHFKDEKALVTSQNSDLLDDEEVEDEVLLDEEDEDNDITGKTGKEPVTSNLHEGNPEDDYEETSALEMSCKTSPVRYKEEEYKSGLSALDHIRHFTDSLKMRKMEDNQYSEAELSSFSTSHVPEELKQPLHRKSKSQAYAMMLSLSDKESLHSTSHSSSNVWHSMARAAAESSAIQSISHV

Results are given in words; binding and its absence hold for the method and conditions named. In cells and extracts the contact can be indirect. Some entries that bind do so weakly or less than the wild type.

In this assay the target is T1, DEAD-Box 56 (DDX56) (human (in the human HCC cell lines MHCC97H and Huh-7)) (UniProt Q9NY93).
T1 sequence: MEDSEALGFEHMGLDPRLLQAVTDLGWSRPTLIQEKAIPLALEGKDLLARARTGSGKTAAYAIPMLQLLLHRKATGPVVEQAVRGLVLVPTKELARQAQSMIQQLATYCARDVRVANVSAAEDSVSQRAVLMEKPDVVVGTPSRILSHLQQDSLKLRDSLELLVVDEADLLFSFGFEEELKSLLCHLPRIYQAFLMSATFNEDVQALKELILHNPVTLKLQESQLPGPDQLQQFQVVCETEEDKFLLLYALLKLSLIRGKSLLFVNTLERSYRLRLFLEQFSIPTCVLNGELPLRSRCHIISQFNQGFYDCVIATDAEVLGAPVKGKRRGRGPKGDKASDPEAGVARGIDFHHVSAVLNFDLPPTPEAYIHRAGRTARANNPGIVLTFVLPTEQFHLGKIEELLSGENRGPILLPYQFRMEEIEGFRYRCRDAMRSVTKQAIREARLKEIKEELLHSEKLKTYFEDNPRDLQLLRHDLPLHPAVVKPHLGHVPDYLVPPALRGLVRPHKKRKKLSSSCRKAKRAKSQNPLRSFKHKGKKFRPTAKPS
The experiment in a line: co-IP; reciprocal co-immunoprecipitation in MHCC97H and Huh-7 cells; no method described.

As for “MDS1 and EVI1 complex locus (MECOM) (from UniProt Q03112 1-1230)”, the binding entry was “binds”.
